1 molecule from patent publication US20260035690A1 can be followed below.

By UniProt entry, the sequences of proteins in these tests, tags left out. Residues count along the entry.
UniProt P10415, residues 1-207: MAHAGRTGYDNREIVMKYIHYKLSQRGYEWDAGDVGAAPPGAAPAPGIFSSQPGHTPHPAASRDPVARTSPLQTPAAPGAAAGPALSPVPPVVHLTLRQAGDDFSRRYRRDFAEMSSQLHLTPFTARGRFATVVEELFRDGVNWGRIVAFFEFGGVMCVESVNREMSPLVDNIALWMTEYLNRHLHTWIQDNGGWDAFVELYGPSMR

No constants are given. Whether binding was seen depends on the method and setting. Some binding calls cover weakened binding; strength is not graded here.

The target in this test is Bcl2 (UniProt P10415). The test is described as follows: one-pot batched yeast mating, barcode sequencing.

B1: Bad.BH3 (peptide, UniProt Q92934 103-128, looked up)
peptide: NLWAAQRYGRELRRMSDEFVDSFKKG
As for B1, the binding entry is on record as “binds”.
